## Library screen at single concentrations

The chains behind the UniProt entries cited, without tags or fusion partners. Residues count along the entry.
UniProt A4I591, 1-473: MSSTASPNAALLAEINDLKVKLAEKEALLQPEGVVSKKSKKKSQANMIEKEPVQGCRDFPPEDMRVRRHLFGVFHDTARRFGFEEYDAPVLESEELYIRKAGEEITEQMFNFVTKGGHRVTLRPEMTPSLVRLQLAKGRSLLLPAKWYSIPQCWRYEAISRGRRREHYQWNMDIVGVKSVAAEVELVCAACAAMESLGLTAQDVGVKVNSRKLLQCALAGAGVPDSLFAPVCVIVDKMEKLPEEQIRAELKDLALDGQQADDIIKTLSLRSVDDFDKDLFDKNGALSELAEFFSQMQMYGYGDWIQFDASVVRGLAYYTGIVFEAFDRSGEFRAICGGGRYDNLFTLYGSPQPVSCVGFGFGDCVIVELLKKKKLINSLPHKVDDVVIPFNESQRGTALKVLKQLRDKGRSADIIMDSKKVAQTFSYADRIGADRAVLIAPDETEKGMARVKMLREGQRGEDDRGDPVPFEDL
UniProt Q8IDJ8, 1-583: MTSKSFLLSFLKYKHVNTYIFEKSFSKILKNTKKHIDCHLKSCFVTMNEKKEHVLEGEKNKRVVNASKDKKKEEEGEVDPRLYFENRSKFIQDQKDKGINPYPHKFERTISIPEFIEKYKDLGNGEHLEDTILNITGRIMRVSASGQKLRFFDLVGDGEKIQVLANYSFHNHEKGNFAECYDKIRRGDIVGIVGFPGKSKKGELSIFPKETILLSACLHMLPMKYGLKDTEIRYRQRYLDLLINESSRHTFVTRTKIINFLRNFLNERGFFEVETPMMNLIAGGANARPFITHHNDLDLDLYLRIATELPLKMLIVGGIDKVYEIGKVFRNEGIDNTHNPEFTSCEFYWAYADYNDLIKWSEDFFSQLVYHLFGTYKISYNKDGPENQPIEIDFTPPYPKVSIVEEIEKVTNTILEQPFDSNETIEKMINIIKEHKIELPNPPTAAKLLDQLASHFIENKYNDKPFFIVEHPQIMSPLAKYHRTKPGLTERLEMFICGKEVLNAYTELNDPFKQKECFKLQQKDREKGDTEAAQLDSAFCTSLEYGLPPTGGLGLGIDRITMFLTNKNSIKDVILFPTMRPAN
UniProt Q4DA54, 1-478: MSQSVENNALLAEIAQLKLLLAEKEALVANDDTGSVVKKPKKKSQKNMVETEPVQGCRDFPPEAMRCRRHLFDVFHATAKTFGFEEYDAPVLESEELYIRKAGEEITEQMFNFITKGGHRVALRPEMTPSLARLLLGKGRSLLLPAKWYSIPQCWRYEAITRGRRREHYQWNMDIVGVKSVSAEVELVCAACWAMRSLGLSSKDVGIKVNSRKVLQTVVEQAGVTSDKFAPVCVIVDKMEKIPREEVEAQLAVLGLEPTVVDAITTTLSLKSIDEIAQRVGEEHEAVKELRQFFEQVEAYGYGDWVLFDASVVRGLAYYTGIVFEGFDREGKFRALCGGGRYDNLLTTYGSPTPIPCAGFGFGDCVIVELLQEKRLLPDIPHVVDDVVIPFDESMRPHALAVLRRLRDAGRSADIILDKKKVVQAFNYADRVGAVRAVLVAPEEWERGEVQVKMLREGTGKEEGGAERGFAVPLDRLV

A: 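Histidine-tRNA ligase, Leishmania infantum (UniProt A4I591). Enzyme assay of histidyl-tRNA synthetase; the read-out is not stated. Concentration: 30 µM. The record gives no direction; compounds that gave an IC50 in retests scored well above the rest, so higher reads as stronger inhibition. The assay is labelled LdHisRS but filed under L. infantum. About 69,000 compounds were tested under these conditions; 0.6% (about 410) showed 50% or more at least once.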
B: 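Enzyme assay of the cytosolic lysyl-tRNA synthetase in 384-well plates, read by luminescence. Target: Lysine-tRNA ligase, Plasmodium falciparum 3D7 (UniProt Q8IDJ8). Compounds at 30 µM. Higher reads as stronger inhibition, judged from the few compounds that gave an IC50. Of about 69,000 compounds tested this way, about 49 (0.071%) reached 50% or more in at least one test.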
C: 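Histidine-tRNA ligase, Trypanosoma cruzi CL Brener (UniProt Q4DA54). Enzyme assay of histidyl-tRNA synthetase; the read-out is not stated. Concentration: 30 µM. Higher reads as stronger inhibition (inferred: compounds with an IC50 in retests scored well above the rest). Size under these conditions: about 69,000 compounds, about 31 of them at 50% or above in at least one test.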

The filed quantity is “Percent Effect” (%). The record does not define 0% and 100%; most values in the screen are far below 50% and negative numbers occur (in some assays of this library far below -100). Compounds were drawn at random from those tested, without regard to their results.

| Compound | A | B | C |
|---|---|---|---|
| `CC(C)(C)CCCC(=O)Nc1ccnn1C1CCS(=O)(=O)C1` (stereo not given) | 13.51 | -0.12 | 16.67 |
| `O=C(C1CCOCC1)N1CC[C@H]2C[C@@H](c3ccncn3)O[C@@H]2C1` | 23.53 | 3.942 | 1.639 |
| `CC(C)NC(=O)N1CCC2(COCc3cnc(-c4ccccc4)nc32)C1` (stereo not given) | 4.11 | -0.4993 | 4.95 |
| `NC(=O)c1ccccc1Oc1cnc(C2CCCN2)cn1` (stereo not given) | 21.28 | 1.587 | 12.41 |
| `O=C1CCC(c2ccccc2)=NN1CN1CCCCCC1` | 25 | 0.4249 | 2.484 |
| `CNC(=O)C1(CCCc2ccncc2)CCN1` (stereo not given) | 16.49 | 3.726 | 7.778 |
| `O=C1CC(c2ccc(F)c(F)c2)c2snc(C(=O)O)c2N1` (stereo not given) | -3.883 | 1.994 | 6.011 |
| `CN1CCCN(C(=O)c2nnn(-c3ccc(C(F)(F)F)cc3)n2)CC1` | 13.91 | 3.542 | 1.031 |
| `CC(Cn1cc(Br)cn1)C(=O)Nc1ccc(Cl)cn1` (stereo not given) | 12.39 | 4.019 | 3.509 |
| `CC(C)N(C)CCCNC(=O)c1cnc(-c2ccccc2)nc1` | 20.75 | 2.723 | -5.932 |
| `CCn1cc(NS(=O)(=O)c2ccc(Br)s2)c(C(=O)NCC(C)C)n1` | -5.747 | 0.2286 | -3.093 |
| `Cc1cc(C)n(CC(=O)N2CCC(NS(C)(=O)=O)CC2)n1` | 24.8 | -2.292 | -3.422 |
| `COc1ccc(CCN2CCCC(Cn3nc(C)nc3C)C2)cc1` (stereo not given) | 21.62 | 1.549 | 12.41 |
| `Cn1nc(-c2ccccc2)c(Br)c1C(=O)O` | 7.895 | 4.413 | 1.754 |
| `COCC(=O)N1CCCN(C(=O)C2Cc3ccccc3CN2C)CC1` (stereo not given) | -5.714 | 0.2496 | 5.155 |
| `Cc1ccc(-c2cn[nH]c2C2CCCN(c3ncccn3)C2)cc1` (stereo not given) | 9.091 | 1.611 | 9.524 |
| `CC(C)(C(=O)NCCC(=O)O)c1cccc(Br)c1` | 14.29 | 5.535 | 0.4926 |
| `CC(C)N(C)C(=O)C1CCC(=O)N(CCc2cccc(F)c2)C1` (stereo not given) | 0 | -3.095 | 4.615 |
| `CCC(CNC(=O)COC)Oc1cccc(F)c1` (stereo not given) | 0 | -6.691 | 6.627 |
| `c1cc(C2CN(C3CCCCC3)C2)n[nH]1` | 0 | -1.979 | 1.149 |
| `Cc1ccc(Cl)cc1NCc1nc2n(n1)CCCCC2` | 0 | -2.219 | -1.242 |
| `Cc1noc(C2CCCN(C(=O)c3ccc(Br)o3)C2)n1` (stereo not given) | 24 | 5.863 | -3.396 |
| `COc1cccc(CNC(C)Cn2cccn2)c1OC` (stereo not given) | 2.74 | 5.252 | 6.87 |
| `CC(C)C[C@H](NC(=O)Nc1ccc(F)c(Cl)c1)C(=O)O` | -7.895 | -0.5819 | -1.754 |
| `Cc1noc(C)c1-c1cccc(C2CCN(CC(=O)N(C)C)CC2)n1` | 2.878 | 0.1424 | 8.812 |
| `CN(CCc1ccccn1)C(=O)C(O)c1ccc(Br)cc1` (stereo not given) | 1.205 | 3.307 | 3.659 |
| `CCc1noc(CCC(=O)N[C@@H]2CC[C@@H](n3ccnc3)[C@@H]2O)n1` | 11.72 | 3.692 | 7.605 |
| `O=C(c1cccc(CNC/C=C/c2ccccc2)c1)N1CCCC1` | 33.33 | -4.381 | 10.1 |
| `NC(=O)NC(=O)CCN1C(=O)CC(Cc2ccc(F)cc2)C1=O` (stereo not given) | 14.52 | -0.06053 | 1.031 |
| `CN1CCCC(c2cccc(-c3cccc(F)c3)n2)C1` (stereo not given) | 12.77 | -0.8869 | 8.527 |
| `CCc1nnc2n1CCN(C(=O)c1cnn(C)c1C1CC1)C2` | 14.52 | -0.5745 | -0.6494 |
| `CCn1cc2c(n1)C(COC)CN(C(=O)CCOc1ccccc1)C2` (stereo not given) | 10.91 | 3.137 | 10.74 |
| `Fc1cnc(N2CCn3cc(CNc4ccccn4)nc3C2)nc1` | 7.547 | 0.2848 | 4.865 |
| `Cc1ncc2c(n1)CN(CCCOc1ccc(C#N)cc1)CC2` | 17.86 | -0.5764 | 8.646 |
| `Cc1nsc(NC(=O)N2CCN(Cc3ccc(F)cc3)C(=O)C2)n1` | 5.714 | 8.746 | 2.479 |
| `Cc1nnc(C2CCN(C(=O)c3cnc4ccccc4n3)CC2)s1` | 6.452 | -0.3641 | 3.627 |
| `Cc1cc(C)n(C2CN(Cc3ccccn3)C2)n1` | 14.63 | -1.906 | 10.1 |
| `O=C(Cc1cccc(F)c1)NCCCNC(=O)c1cccc(O)c1` | 12.17 | 0.7612 | 8.046 |
| `CC(C(=O)Nc1ccccc1Sc1ccccc1)S(C)(=O)=O` (stereo not given) | 15.93 | 2.612 | -2.632 |
| `CN(C)S(=O)(=O)Nc1ccc(-n2nncc2C(F)(F)F)cc1` | 15.97 | 5.545 | 0.9804 |
| `CCN1CCC2(CC1)CC(NCc1cccc(C)n1)c1ccccc1O2` (stereo not given) | 7.692 | -5.34 | 3.659 |
| `C[C@@H]1CN(Cc2nc(Cc3ccccc3F)no2)C[C@H](C)O1` | -1.176 | 3.327 | 1.345 |
| `CCc1nc(NC2CCCN(C(=O)C3CC3)C2)c2cnn(C)c2n1` (stereo not given) | 10.87 | -6.521 | 2.97 |
| `Cc1ccc(-c2noc(CN3CCc4nn(C)c(=O)cc4C3)n2)cc1` | 70.69 | 1.643 | 6.215 |
| `Cc1nc2c(c(N(C)C)n1)CCN(C(=O)CN1CCC(O)CC1)C2` | 16.13 | 2.474 | 12.64 |
| `C[C@@H]1CN(Cc2ccccn2)C[C@]12CCN(Cc1cccnc1)C2=O` | 26.61 | 7.768 | 11.06 |
| `Cc1nn(C)c(C)c1CN(C)c1nc(C2CC2)nc2c(C)nn(C)c12` | 7.143 | -4.706 | 3.96 |
| `COc1ccc2c(ccn2CCCN)c1` | 14.13 | 1.907 | 5.941 |
| `CCNC(=O)Cc1ccc(-c2cccc3c2CCNC3)cc1` | 17.39 | 1.993 | 6.931 |
| `COCCn1cc(C(=O)N2CCCC2c2cccc(F)c2)ccc1=O` (stereo not given) | -1.923 | 3.446 | 3.333 |
| `CC(C)CS(=O)(=O)N1C[C@H]2C[C@H](C(=O)N3CCN(C)CC3)[C@@H](C1)O2` | 9.434 | 6.576 | 7.778 |
| `Cc1ccc(S(=O)(=O)Cc2noc([C@@H]3C[C@@H](O)CN3C(C)C)n2)cc1` | 11.11 | 9.283 | 4.95 |
| `Cc1cc(CN(C)C(=O)CNS(=O)(=O)c2cccs2)no1` | 6.667 | -1.873 | 1.818 |
| `CC(C)C(NC(=O)NCc1cccnc1N(C)C)c1cccs1` (stereo not given) | 13.25 | 3.428 | 10.45 |
| `COc1ccc(C(=O)C2CCCN(Cc3ccc(C)o3)C2)c(OC)c1` (stereo not given) | 9.524 | 2.872 | 4.959 |
| `CCC(C)N(Cc1cccnc1)Cc1ccc2c(c1)OCCO2` (stereo not given) | 1.493 | 2.189 | 3.191 |
| `COc1cc(F)ccc1N(C)Cc1ccccn1` | 18.31 | -0.577 | 2.762 |
| `CCS(=O)(=O)N1CCC2(CCN(Cc3nccs3)CC2)CC1` | 30 | 4.697 | 1.149 |
| `Cc1nc(N2CCN(C(=O)C3CCCC3)CC2)c2c(n1)c(C)nn2C` | 15.52 | 5.766 | 5.217 |
| `CCNC(=O)C1CCCN(c2ccc(C#N)cc2C(F)(F)F)C1` (stereo not given) | 4.712 | 4.827 | 8.021 |

3 of the entries, repeated:

- CCC(CNC(=O)COC)Oc1cccc(F)c1 (stereo not given) : A: 0%; B: -6.691%; C: 6.627%
- C[C@@H]1CN(Cc2ccccn2)C[C@]12CCN(Cc1cccnc1)C2=O : A: 26.61%; B: 7.768%; C: 11.06%
- CCc1nc(NC2CCCN(C(=O)C3CC3)C2)c2cnn(C)c2n1 (stereo not given) : A: 10.87%; B: -6.521%; C: 2.97%

Source: ChEMBL document CHEMBL3988442, “University of Dundee, Small-Polar-MMV Screening Library” (2021).